B1: il10ra_site1_normal_mot_HHH_b1_05357_000000034_0001_23_39_H_._HHH_b2_00694_0002_0000100006_0000001_0_af2pred_0001 (protein)
chain: SSSSSSSEEEVEELLEEAKRIEDRHEVSYLLIRAYAIAYRLGDPELRRLVKEVAQELSSSSSSSS
B2: il10ra_site1_sap_22_mot_690a356816548de866c59e88e666ab0a_0001_1_af2_000000025_0001_1_13_H_._HHH_b1_01796_af2_0001_0000400019_0000001_0_0001_af2pred_0001 (protein)
chain: SSSSDIAEADARQAFKLLEIAHEQNDEELLERALELLEYLARLSNDPEAERLLEEAEKLVGSSSS
B3: il10ra_site1_sap_23_mot_HHH_eva_0509_000000209_0001_39_55_H_._HHH_b1_07761_af2_0001_0000100004_0000001_0_0001_af2pred_0001 (protein)
chain: SSSSSDAKEIAVELLHLLREGNEEEAERVVEEAREELEEKGDPQAVQLLELAFKLLQLAYSSSSS
B4: il10ra_site1_sap_25_mot_65b8060e20531850bca9f2e11f97d954_0001_af2_000000137_0001_17_31_H_._HHH_b1_08498_0001_0000200024_0000001_0_0001 (protein)
chain: SSSSSEEERVLELILEAFRLALRGDPEEAEKLLEEAEKLAEELGDERAARMVRDMLEAQKSSSSS
B5: il10ra_site1_sap_23_mot_HHH_b1_02232_000000288_0001_23_39_H_._HHH_b2_06480_0001_0000100002_0000002_0_0001 (protein)
chain: SSSSDEEQQRLIELILEAARAMIRGDDEQARELLEEAIELAEELGDEEALKQLERFLKSLSSSSS
B6: il10ra_site1_normal_mot_HHH_b2_02337_000000026_0001_38_52_H_._HHH_b1_01793_0001_0000300028_0000002_0 (protein)
chain: SSSSSREEVEELLEELEELLREGDQERFSELAQRIARLAIRVNDPELLQALWELVQEFARKSSSS
B7: il10ra_site1_sap_22_mot_22aa8d8ad8dce7f663ea8fa348a52261_0001_000000025_0001_37_51_H_._d98b4791b6225abad9199bf72535a804_0001_0001_0000400016_0000001_0_0001 (protein)
chain: SSSDKEEAEELYEEAEELLERGDPEEALRVLWRAIHLAVESGDRELLERLYELLHKILREGSSSS
B8: il10ra_site1_sap_16_mot_HHH_b2_02386_000000054_0001_1_20_H_._HHH_b1_00572_0001_0000200014_0000001_0_0001 (protein)
chain: SSSSDEEEEELRELLRRVEELLERGDPERALKVTQKLLRLIYQLSDEEALRELWRLLKKYGSSSS
B9: il10ra_site1_normal_mot_HHH_b1_06789_af2_000000041_0001_1_20_H_._HHH_b2_03706_af2_0001_0000400012_0000001_0_af2pred_0001 (protein)
chain: SSSSDAEFLVRAALKAAERAAKNGDPEKAERALEIARLLAELNNDEELEELVREVEERLGSSSSS
B10: il10ra_site1_normal_mot_HHH_b1_05357_000000034_0001_23_39_H_._ems_p1-16H-GBL-16H-GABBL-15H_0194_0001_0001_0001_0001_0000300024_0000001_0_af2pred_0001 (protein)
chain: SSSSSSEVSYLAIRVLALARQKGDEEVVRLAREILRRYLEGKMSREEAEEELKKLEEEAKSSSSS

This is one part of the list.

The assay concerns the target il10ra, Q13651. The assay can be described thus: yeast display titration.
For B1, the “apparent Kd” value was “inactive: no binding seen”.

Consider B2, for which the “apparent Kd” value is “inactive: no binding seen”.

With B3, the “apparent Kd” value is “inactive: no binding seen”.

Consider B4, for which the “apparent Kd” value is “inactive: no binding seen”.

As for B5, the “apparent Kd” value is “inactive: no binding seen”.

Turning to B6, the “apparent Kd” value was “inactive: no binding seen”.

B7: the “apparent Kd” value was “inactive: no binding seen”.

Take B8: the “apparent Kd” value is “inactive: no binding seen”.

Consider B9, for which the “apparent Kd” value was “inactive: no binding seen”.

On to B10, for which the “apparent Kd” value is “inactive: no binding seen”.

The values are drawn from article PMC10163288.
